{"source": "patent US7008961B1", "about": "“Composition and method for treating carcinoma” (priority 1995, dated 2006)", "key": {"[1]": {"tested_on": "NPF-209 normal prostate fibroblast", "assay": "Rh-123 retention by flow cytometry, NPF-209", "assay_type": "cell-based, human"}, "[2]": {"tested_on": "LNCaP", "assay": "Rh-123 retention by flow cytometry, LNCaP", "assay_type": "cell-based, human"}}, "data": [{"compound": "COC(=O)c1ccccc1-c1c2ccc(=N)cc-2oc2cc(N)ccc12.Cl", "note": "[Rh-123, methyl o-(6-amino-3-imino-3H-xanthen-9-yl) benzoate monohydrochloride]", "values": [{"measurement": "Rh-123 taken up that was lost", "setting": "[1]; NPF cells, within 24 hours following removal of the drug", "value": "over 90%"}, {"measurement": "% Retention of Rh-123", "setting": "[1]; NPF-209, 24 hours in dye-free medium after 1 hour labeling with 10 μg/ml", "value": 9, "unit": "%"}, {"measurement": "% Retention of Rh-123", "setting": "[2]; LNCaP Population 1, 24 hours in dye-free medium after 1 hour labeling with 10 μg/ml", "value": 24, "unit": "%"}, {"measurement": "% Retention of Rh-123", "setting": "[2]; LNCaP Population 2, 24 hours in dye-free medium after 1 hour labeling with 10 μg/ml", "value": 64, "unit": "%"}]}]}
